{"source": "PubChem BioAssay AID1259308 | NCATS | 2017", "aim": "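Knock-downs that increase output of a recombinant reporter protein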 (primary screen)", "cells": "human HEK293 embryonic kidney cells stably expressing firefly luciferase (HEK-CMV-Luc2-Hygro)", "reagent": "single siRNA against human genes, 0.8 pmol siRNA per well", "timing": "72 h", "read-out": "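Luciferase light (ONE-Glo) measured on one replicate plate set and viability (CellTiter-Glo) on the other, scaled to a negative control siRNA, with robust z-scores and luciferase per cell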", "scale": "total luciferase, z-score and total luciferase, % of control: higher = more reporter protein produced", "rule for the call": "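An siRNA counts as active if its total luciferase robust z-score exceeds 3; genes with two or more such siRNAs out of three were retested with fresh siRNAs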", "meaning of the calls": "active = raised luciferase; inactive = no rise", "note": "The whole screen tested about 59,000 reagents; below is a random part of them. About 1,510 of them (2.6%) count as active. 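Calls use total luciferase alone and ignore viability, so some active siRNAs may act by altering cell number.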 Entries without a mark were called inactive. The numbers tell different reagents against one gene apart. Not all columns of the deposit are shown."}
{"gene": "SSX6P", "siRNA no.": 1, "total luciferase, z-score": "4.78 (active)", "total luciferase, % of control": 177}
{"gene": "SSX6P", "siRNA no.": 2, "total luciferase, z-score": 0.0988, "total luciferase, % of control": 83.9}
{"gene": "SSX6P", "siRNA no.": 3, "total luciferase, z-score": 0.244, "total luciferase, % of control": 86.7}
{"gene": "POU5F2", "siRNA no.": 1, "total luciferase, z-score": 1.46, "total luciferase, % of control": 111}
{"gene": "POU5F2", "siRNA no.": 2, "total luciferase, z-score": 0.187, "total luciferase, % of control": 85.6}
{"gene": "POU5F2", "siRNA no.": 3, "total luciferase, z-score": 0.0606, "total luciferase, % of control": 83.1}
{"gene": "CBLN1", "siRNA no.": 1, "total luciferase, z-score": -0.506, "total luciferase, % of control": 71.8}
{"gene": "CBLN1", "siRNA no.": 2, "total luciferase, z-score": 0.0865, "total luciferase, % of control": 83.6}
{"gene": "CBLN1", "siRNA no.": 3, "total luciferase, z-score": 0.967, "total luciferase, % of control": 101}
{"gene": "POLR2J", "siRNA no.": 1, "total luciferase, z-score": -1.22, "total luciferase, % of control": 57.6}
{"gene": "POLR2J", "siRNA no.": 2, "total luciferase, z-score": 2.77, "total luciferase, % of control": 137}
{"gene": "POLR2J", "siRNA no.": 3, "total luciferase, z-score": -0.19, "total luciferase, % of control": 78.1}

Not a retest: entries from further up.
{"gene": "CBLN1", "siRNA no.": 3, "total luciferase, z-score": 0.967, "total luciferase, % of control": 101}
{"gene": "POLR2J", "siRNA no.": 1, "total luciferase, z-score": -1.22, "total luciferase, % of control": 57.6}
{"gene": "POLR2J", "siRNA no.": 2, "total luciferase, z-score": 2.77, "total luciferase, % of control": 137}

The listing continues.
{"gene": "INVS", "siRNA no.": 1, "total luciferase, z-score": 0.359, "total luciferase, % of control": 89}
{"gene": "INVS", "siRNA no.": 2, "total luciferase, z-score": 1.2, "total luciferase, % of control": 106}
{"gene": "INVS", "siRNA no.": 3, "total luciferase, z-score": 0.919, "total luciferase, % of control": 100}
{"gene": "RPSAP9", "siRNA no.": 1, "total luciferase, z-score": -2.81, "total luciferase, % of control": 26.1}
{"gene": "RPSAP9", "siRNA no.": 2, "total luciferase, z-score": -3.02, "total luciferase, % of control": 21.9}
{"gene": "RPSAP9", "siRNA no.": 3, "total luciferase, z-score": -1.96, "total luciferase, % of control": 42.9}
{"gene": "PTPN3", "siRNA no.": 1, "total luciferase, z-score": -0.192, "total luciferase, % of control": 78.1}
{"gene": "PTPN3", "siRNA no.": 2, "total luciferase, z-score": 0.803, "total luciferase, % of control": 97.9}
{"gene": "PTPN3", "siRNA no.": 3, "total luciferase, z-score": 0.0176, "total luciferase, % of control": 82.2}
